The values below come from doi:10.1101/513960.

Results are given in words; binding and its absence hold for the method and conditions named. Some binding calls cover weakened binding; strength is not graded here.

This experiment addresses T1, Scc1 kleisin (S. cerevisiae) (UniProt Q12158).
T1 sequence: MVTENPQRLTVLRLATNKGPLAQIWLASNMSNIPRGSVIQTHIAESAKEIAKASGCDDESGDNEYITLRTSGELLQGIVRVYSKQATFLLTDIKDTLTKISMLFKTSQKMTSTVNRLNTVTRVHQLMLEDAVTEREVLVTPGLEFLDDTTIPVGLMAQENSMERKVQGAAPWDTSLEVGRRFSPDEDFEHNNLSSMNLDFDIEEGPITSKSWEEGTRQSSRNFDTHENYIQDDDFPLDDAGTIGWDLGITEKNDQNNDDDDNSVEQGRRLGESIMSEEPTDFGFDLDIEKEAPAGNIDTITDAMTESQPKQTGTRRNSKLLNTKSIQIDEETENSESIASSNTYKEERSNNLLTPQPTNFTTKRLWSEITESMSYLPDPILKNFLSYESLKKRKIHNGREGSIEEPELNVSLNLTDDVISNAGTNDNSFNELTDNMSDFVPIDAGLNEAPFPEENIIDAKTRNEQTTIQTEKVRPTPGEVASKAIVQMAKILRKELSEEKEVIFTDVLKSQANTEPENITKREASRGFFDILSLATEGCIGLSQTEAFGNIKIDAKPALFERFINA
Kind of experiment: co-purification.

B1: Scc3 (protein, UniProt P40541 1-1150)
chain: MTAVRRSTRIRTKSQVIEEDYDDEQNTSAQHVESDKITAKTQHEEEEEQDTGESEESSSEDDYEDQDDDDYVDTATAKRKSRKRKPKSASNTSSKRQKKKPTSAQKSAVSHAPAYHRSKKDQDQYLEIAKDFQPTELFDILSTSEDVSIEELLREWLETYSENRDKFLQEFINLLLNCCGSVARVEDHDVHSNESSNETIGEIQLLFQRQKLHEFYLLISKENKKRKNFKMGPLYQNFAEFMTKLLEVANDLQLLYVESDEDDTQIVTGNLVLDLLTWLSSFSVCKIRCFRYISTLTLYLFQDYLTQQAVNLEKNYLAKLSKQLSLEEKKKRPNNKTLEKLESTIAETQGSKVVIDSIIDNIVKLCFVHRYKDVSDLIRSESMLHLSIWIKNYPEYFLKVTFLKYFGWLLSDNSVSVRLQVTKILPHLIIQNHNSKSTDNSAIRQVFERFKTKILEVAIRDVNLDVRIHSIQVLTEASSLGYLDDSEILIISSLMFDEEFDPFKTSSFNKRSKFLSTVAKFLARVIKEKFDEFIKTHEDLPKEVDGLEVGPVVQVGIFIKILNDSLIYHLKDCAEVDSRTKIRMLTQAAEFLSPYISTHLKTICNLLISDTESNELIQKLQNSANNNSDDEDVDDEELDITPLFPIDRNSTILYLNVFHGLCAGANNPKIQTKDSVKEIVLPLFYDLLNAASIESADILCPLLESFITFSLDDWISIGYETELKKITDKTIKAFMDSTIGNSKVDMKYDIFAKFIHHIHHFEKKELQEKFLNQIATLKIHLKKFLQEKMDPNNSRDDYKDLTCSLYELYINKLTILGRDYPIEVDEELLQLFLNNFVSRIPIMFQDFDDSTAQEINFKMLVLLATWNLEKWREIIEKVRDYENSISKDLRSVWKPIAAIIGRLNTLVISLAATNETFENINSLFYLKWSACTSLMDIIVAIKIFELKLPADATTWRYSMSEQFPFYLHDNASKVLLKIFLYLESLFAKQVDVQLERVADEDANLNDLPETGFFENIETEFLLFTVKLKGLMKLNILDERFASRVALNKEKLGPLFKKIVDDTIMENPEPNKKNIQKAKSNQTQREKAPLQPNSERETDHANTENNDPDIPMTIDLEPIEESSQNNSELAPIEEHPTVVDAIDNSDEITQD
In the case of B1, the binding entry is on record as “binds”.
